# Laboratory results as given in publication PMC4117610.
# Sequences of proteins named here, by UniProt entry; tags and fusion partners are left off. A change or cut given only in a name is not applied to a line headed by its entry.
# UniProt Q8BNI4: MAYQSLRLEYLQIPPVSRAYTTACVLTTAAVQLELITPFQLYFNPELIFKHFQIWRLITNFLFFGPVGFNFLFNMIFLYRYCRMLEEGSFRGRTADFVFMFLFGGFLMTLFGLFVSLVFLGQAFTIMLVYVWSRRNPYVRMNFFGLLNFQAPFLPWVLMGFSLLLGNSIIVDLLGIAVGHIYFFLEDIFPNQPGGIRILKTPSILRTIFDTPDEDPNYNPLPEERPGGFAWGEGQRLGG
# Target: Derl2 with a C-terminal GFP tag (Derl2-GFP), S-tagged (mouse) (UniProt Q8BNI4)
# Assay: pull-down; 293 cells transfected with S-tagged forms of Derl2, lysed after 72 h in 1% digitonin buffer; S-protein agarose precipitates, washed with 0.1% digitonin, 25 mM Tris-HCl, 150 mM NaCl, 5 mM EDTA, pH 7.0; western blot with anti-p97 and anti-S-tag
sequence,measurement,value
AAA ATPase p97 (from UniProt P55072 1-806),binding,no binding

# Results are given in words; binding and its absence hold for the method and conditions named. In cells and extracts the contact can be indirect.
